# Values from PubChem BioAssay AID1159578 (Peter MacCallum Cancer Centre, 2015)
# Purpose: 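Genome-wide hunt for genes controlling movement of lymphatic endothelial cells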 (primary screen)
# Cell system: human lymphatic endothelial cells
# Reagent: siRNA pool against human genes, 40 nM
# Timing: 48 h after transfection
# Read-out: 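High-content imaging of dye-stained cells in a scratch assay measures filled wound area and nuclei per well; duplicate means given as ratio to mock and robust z-score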
# Direction: migration robust z-score: higher = faster migration into the scratch; migration relative to mock: higher = more scratch area covered than mock; nuclei per well: higher = more cells in the well
# Rule for the call: 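Pools averaging fewer than 3300 nuclei are never called; remaining pools count as changed when migration robust z lies outside -2 to 2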
# Calls: active = migration changed; inactive = no migration change, or too few cells
# Shown is a random part of about 18,000 reagents. Of all reagents, about 1,030 (5.7%) were called active. 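Inactive calls also include pools with fewer than 3300 nuclei, whose migration was not assessed.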 Raw values vary from plate to plate and are shown uncorrected. Unmarked entries are inactive. No sequences are given here.
Target gene,migration robust z-score,migration class with cell-count check,migration relative to mock,"nuclei per well, duplicate mean"
NLGN1,0.42,migration z between -2 and 2; enough cells,0.88,5408
RAB6C,1.46,migration z between -2 and 2; enough cells,1.08,5807
CPXM1,0.08,migration z between -2 and 2; enough cells,0.82,6034
COX7B,1.13,migration z between -2 and 2; enough cells,1.18,5494
POLR3F,-1.86,migration z between -2 and 2; enough cells,0.4,6310
RPS25,1.52,migration z between -2 and 2; enough cells,1.28,4714
CD276,-2.17 (active),migration z below -2; enough cells,0.32,5004
RBM39,-0.78,migration z between -2 and 2; enough cells,0.68,5654
CDK12,0.7,migration z between -2 and 2; enough cells,0.94,5426
FAM222A,-2.32 (active),migration z below -2; enough cells,0.28,3684
PLEKHA5,-3.38,under 3300 nuclei; migration not judged,0.01,3145
SLC12A1,-1.63,migration z between -2 and 2; enough cells,0.49,5423
PTP4A1,-0.13,migration z between -2 and 2; enough cells,0.78,5746
FAM209A,0.2,migration z between -2 and 2; enough cells,0.94,5486
MRNIP,-2.02 (active),migration z below -2; enough cells,0.36,4150
TERB2,-0.35,migration z between -2 and 2; enough cells,0.8,5546
FBXL13,1.69,migration z between -2 and 2; enough cells,1.13,5993
KCNQ4,-0.46,migration z between -2 and 2; enough cells,0.72,5479
ARL14,-0.9,migration z between -2 and 2; enough cells,0.66,4046
IFT22,1.96,migration z between -2 and 2; enough cells,1.39,6005
ZDHHC9,1.04,migration z between -2 and 2; enough cells,1.15,5512
CYB561A3,-0.66,migration z between -2 and 2; enough cells,0.72,5096
GK5,-1.82,migration z between -2 and 2; enough cells,0.45,5792
KIF13A,0.46,migration z between -2 and 2; enough cells,0.9,6192
PRP4K,-0.46,migration z between -2 and 2; enough cells,0.72,5524
SIGLEC15,-0.89,migration z between -2 and 2; enough cells,0.66,5864
PAQR7,-0.81,migration z between -2 and 2; enough cells,0.68,5316
GCKR,-0.78,migration z between -2 and 2; enough cells,0.66,5915
CREB3L3,-0.23,migration z between -2 and 2; enough cells,0.83,4566
GLB1,2.04 (active),migration z above 2; enough cells,1.2,5372
NIT1,0.6,migration z between -2 and 2; enough cells,0.92,5778
MAP6,0.88,migration z between -2 and 2; enough cells,0.98,4561
NAV2,-1.39,migration z between -2 and 2; enough cells,0.52,4641
GLRX3,-0.26,migration z between -2 and 2; enough cells,0.76,5578

Records above whose target name begins with F or f (3):
Target gene,migration robust z-score,migration class with cell-count check,migration relative to mock,"nuclei per well, duplicate mean"
FAM222A,-2.32 (active),migration z below -2; enough cells,0.28,3684
FAM209A,0.2,migration z between -2 and 2; enough cells,0.94,5486
FBXL13,1.69,migration z between -2 and 2; enough cells,1.13,5993

More reagents:
Target gene,migration robust z-score,migration class with cell-count check,migration relative to mock,"nuclei per well, duplicate mean"
ZNF18,1.15,migration z between -2 and 2; enough cells,1.18,6756
KCNAB2,-0.55,migration z between -2 and 2; enough cells,0.7,5248
CYP3A5,-0.55,migration z between -2 and 2; enough cells,0.74,5340
PARP14,0.96,migration z between -2 and 2; enough cells,0.99,6208
APOA5,1.12,migration z between -2 and 2; enough cells,1.17,6849
VEPH1,-0.84,migration z between -2 and 2; enough cells,0.66,6184
EML2,0.3,migration z between -2 and 2; enough cells,0.97,6362
MRPS34,0.96,migration z between -2 and 2; enough cells,1.14,6584
STAM,-1.58,migration z between -2 and 2; enough cells,0.48,4391
PRDM4,-0.39,migration z between -2 and 2; enough cells,0.73,6304
TK2,-0.68,migration z between -2 and 2; enough cells,0.68,4393
OR5D14,1.08,migration z between -2 and 2; enough cells,1.16,6394
TBKBP1,-1.16,migration z between -2 and 2; enough cells,0.58,6034
ARFRP1,-0.83,migration z between -2 and 2; enough cells,0.64,5794
RASSF9,-0.84,migration z between -2 and 2; enough cells,0.67,5533
RPL10A,-1.37,migration z between -2 and 2; enough cells,0.53,3628
NAA15,1.15,migration z between -2 and 2; enough cells,1.02,5474
OR5AR1,-0.68,migration z between -2 and 2; enough cells,0.71,5446
SEMA3E,1.21,migration z between -2 and 2; enough cells,1.2,5744
SLC7A6,-0.06,migration z between -2 and 2; enough cells,0.87,5561
STRADA,-2.54,under 3300 nuclei; migration not judged,0.32,3102
RBM6,-0.77,migration z between -2 and 2; enough cells,0.68,4152
CLSTN1,-2.12 (active),migration z below -2; enough cells,0.4,5005
